Results are given in words; binding and its absence hold for the method and conditions named. Some results given as binding are weak or reduced against the parent protein; the word gives no strength.
Target: T1, Cytochrome b5 of Paracoccidioides brasiliensis, recombinant (Paracoccidioides brasiliensis) (UniProt C1G8H3)
T1 sequence: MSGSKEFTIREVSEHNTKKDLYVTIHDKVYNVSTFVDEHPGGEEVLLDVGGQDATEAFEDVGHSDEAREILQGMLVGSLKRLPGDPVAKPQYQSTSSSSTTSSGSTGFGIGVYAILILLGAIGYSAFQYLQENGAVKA
Test: far-Western, overlay or dot blot; 20 ug recombinant PbCyb5 after SDS-PAGE on nitrocellulose; incubated 1 h at room temperature with purified recombinant PbAtx1 at 35 ug/mL in PBS, 5% non-fat milk, 0.1% Tween 20; detected with anti-PbAtx1 polyclonal antibodies; both purified

binding: binds
B1: Copper metallochaperone Atx1 of Paracoccidioides brasiliensis, recombinant (protein, UniProt C1G2I6 1-81)
chain: MASVEHQYKFNISMSCGGCSGAVERVLKKLDGVKSYTVNLESQTATVVADPSLEYDTVLSTIKKTGKTVNSGEADGEPKDV

Reference: paper PMC9963772
